Binding data for three molecules are collected here from patent publication US20230416760A1 (CURATORS OF THE UNIVERSITY OF MISSOURI, published 2023).

Results are given in words; binding and its absence hold for the method and conditions named. For some assays here: In cells and extracts the contact can be indirect. Some binding calls cover weakened binding; strength is not graded here.

Assay [1] concerns the target BADC1 (AT3G56130), biotin/lipoyl attachment domain-containing protein, Arabidopsis thaliana (Arabidopsis thaliana). In words: intact mass analysis.
Assay [2] concerns the target T1, BADC3 (AT3G15690), Single hybrid motif protein, Arabidopsis thaliana (Arabidopsis thaliana).
T1 sequence: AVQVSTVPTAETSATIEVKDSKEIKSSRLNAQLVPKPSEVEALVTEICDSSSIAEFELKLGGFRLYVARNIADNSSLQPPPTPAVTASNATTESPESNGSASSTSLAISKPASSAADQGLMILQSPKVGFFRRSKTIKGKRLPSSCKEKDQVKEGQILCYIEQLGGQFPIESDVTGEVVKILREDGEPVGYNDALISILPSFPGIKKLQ
In words: yeast two-hybrid.

For assay [3], the target named is T2, BADC2 (AT1G52670), Single hybrid motif protein, Arabidopsis thaliana (Arabidopsis thaliana).
T2 sequence: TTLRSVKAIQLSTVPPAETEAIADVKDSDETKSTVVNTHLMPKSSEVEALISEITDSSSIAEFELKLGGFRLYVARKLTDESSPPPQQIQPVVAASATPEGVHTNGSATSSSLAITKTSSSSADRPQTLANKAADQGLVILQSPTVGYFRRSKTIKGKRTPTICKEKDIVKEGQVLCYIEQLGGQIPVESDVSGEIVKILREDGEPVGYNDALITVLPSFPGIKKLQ
The assay is described as follows: yeast two-hybrid.

The target of assay [4] is BADC1 (AT3G56130), biotin/lipoyl attachment domain-containing protein, Arabidopsis thaliana (Arabidopsis thaliana). In words: intact mass analysis; monomer and dimer band on SDS-PAGE without DTT (disulfide-linked homodimer).
Assay [5] concerns the target T1, BADC3 (AT3G15690), Single hybrid motif protein, Arabidopsis thaliana (Arabidopsis thaliana). In words: intact mass analysis.
Assay [6] has as its target T3, biotin carboxylase (BC) subunit of hetACCase, AT5G35360, Arabidopsis thaliana (Arabidopsis thaliana) (UniProt O04983).
T3 sequence (looked up): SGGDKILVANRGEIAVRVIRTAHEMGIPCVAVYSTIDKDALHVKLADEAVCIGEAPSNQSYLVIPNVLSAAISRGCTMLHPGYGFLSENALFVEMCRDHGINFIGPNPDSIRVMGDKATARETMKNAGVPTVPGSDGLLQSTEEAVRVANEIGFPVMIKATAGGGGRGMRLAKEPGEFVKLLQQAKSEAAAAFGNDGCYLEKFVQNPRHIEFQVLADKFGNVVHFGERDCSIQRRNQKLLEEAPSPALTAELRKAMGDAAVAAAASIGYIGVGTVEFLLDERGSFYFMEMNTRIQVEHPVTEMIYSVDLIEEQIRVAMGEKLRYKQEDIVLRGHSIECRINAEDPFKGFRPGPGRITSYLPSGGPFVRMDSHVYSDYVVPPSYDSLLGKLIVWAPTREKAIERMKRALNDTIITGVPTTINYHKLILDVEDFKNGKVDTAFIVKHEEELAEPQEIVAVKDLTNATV
In words: co-expression in E. coli, Ni-NTA co-purification.

Assay [7] addresses T1, BADC3 (AT3G15690), Single hybrid motif protein, Arabidopsis thaliana (Arabidopsis thaliana). In words: intact mass analysis; monomer and dimer band on SDS-PAGE without DTT (disulfide-linked homodimer).

B1: BADC1 (AT3G56130), biotin/lipoyl attachment domain-containing protein, Arabidopsis thaliana (other)
chain: AKAAKSSTTTISDGSSDASVSDGKKTVRRITFPKEVEALVHEMCDETEVAVLQLKVGDFEMNLKRKIGAATNPIPVADISPTVAPPIPSEPMNKSASSAPSPSQAKPSSEKVSPFKNTSYGKPAKLAALEASGSTNYVLVTSPAVGKFQRSRTVKGKKQSPSCKEGDAIKEGQVIGYLHQLGTELPVTSDVAGEVLKLLSDDGDSVGYGDPLVAVLPSFHDINIQ
notes: Recombinant and yeast two-hybrid constructs were made without the transit peptide predicted by TargetP; also called AtBADC1
As to B1, the binding entry in assay [1], in assay [2], in assay [3] and in assay [4] was “binds” each time.

B2: BADC2 (AT1G52670), Single hybrid motif protein, Arabidopsis thaliana (other)
chain: TTLRSVKAIQLSTVPPAETEAIADVKDSDETKSTVVNTHLMPKSSEVEALISEITDSSSIAEFELKLGGFRLYVARKLTDESSPPPQQIQPVVAASATPEGVHTNGSATSSSLAITKTSSSSADRPQTLANKAADQGLVILQSPTVGYFRRSKTIKGKRTPTICKEKDIVKEGQVLCYIEQLGGQIPVESDVSGEIVKILREDGEPVGYNDALITVLPSFPGIKKLQ
notes: His-tagged or untagged from E. coli, bait/prey fusion in yeast two-hybrid, native protein in co-IPs; also called AtBADC2
In the case of B2, in assay [2], the binding entry is on record as “binds”.

B3: BADC3 (AT3G15690), Single hybrid motif protein, Arabidopsis thaliana (protein)
chain: AVQVSTVPTAETSATIEVKDSKEIKSSRLNAQLVPKPSEVEALVTEICDSSSIAEFELKLGGFRLYVARNIADNSSLQPPPTPAVTASNATTESPESNGSASSTSLAISKPASSAADQGLMILQSPKVGFFRRSKTIKGKRLPSSCKEKDQVKEGQILCYIEQLGGQFPIESDVTGEVVKILREDGEPVGYNDALISILPSFPGIKKLQ
Turning to B3, the binding result in assay [5], in assay [6] and in assay [7] was “binds” in each case.
